Experimental data: US8673904B2, “Epoxide inhibitors of cysteine proteases” (The Board of Trustees of the Leland Stanford Junior …, priority 2006, dated 2014)
At least one structure is not confirmed: it was looked up by name or label, or the drawing left a doubt.

Tested on: cathepsin targets
Assay: Cathepsin targets of the compounds (Table 4)
Assay type: biochemical, rat
Conditions: cathepsin target(s) inhibited; General = all cathepsins
Description: Also included in the table for comparison are known compounds JPMOEt and JPMOH (also known as JPM-565). See Meara and Rich, J. Med. Chem. 39:3357-3366, 1996; Bogyo et al, Chem. Biol. 7:27-38, 2000; and Joyce et al., Cancer Cell 5:443-453, 2004. The table also lists cathepsin targets and measured IC50 values for specific compounds. To determine these values, 1 mg/ml of rat liver lysate was incubated with a series of concentrations of the inhibitor for 20 minutes. Then, 1 ul of a radiolabled general cathepsin probe, DCG-04, was added to the solutions and incubated for 1 hour. After fixing and drying the gel, the residual enzyme activity was measured using ImageJ software. The measurements were then transferred to GraphPad Prism 4 to calculate the IC50 values.

`CCOC(=O)C1O[C@@H]1C(=O)N[C@@H](CC(C)C)C(=O)N[C@@H](Cc1ccc(O)cc1)C(N)=O` (stereo partly shown) [Compound 39] was tested. Which Target did it give?
Its Target is “General”.
